Source: US10017451B2, “Lactic acid extraction” (PURAC BIOCHEM BV, priority 2011, dated 2018)

Assay: Comparison of different solvents in lactic acid extraction/back extraction (Example 10)
Assay type: physicochemical
Conditions: listed as substance is the extraction solvent; feed 29 wt % lactic acid, 15 wt. % magnesium chloride; forward and back extraction at 20° C.

| SMILES | [lactic acid] product |
| --- | --- |
| O=C1CCCCC1 [cyclo-hexanone] | 32 wt. % |
| CCCOCC [ethyl propyl ether] | 25 wt. % |
| CCCCCCCCN(CCCCCCCC)CCCCCCCC [trioctylamine (TOA), trioctylamine] | 13 wt. % |
| CCCCCCC(C)=O [2-octanone] | 30 wt. % |
| Cc1ccccc1 [toluene] | 1 wt. % |
| CCN(CC)C(=O)c1cccc(C)c1 [n,n-diethyl-m-toluamide] | 27 wt. % |
| CCCCC(C)=O [2-hexanone] | 35 wt. % |
| CC(=O)CC(C)C [MIBK, methyl-isobutyl-ketone] | 35 wt. % |
| CCCC(C)=O [2-pentanone] | 30 wt. % |
| CCCCCC(C)=O [2-heptanone] | 34 wt. % |
| CCOCC [diethylether] | 38 wt. % |
| COC(C)(C)C [methyl-tertiary-butyl-ether] | 37 wt. % |
| CC(C)OC(C)C [diisopropyl ether] | 21 wt. % |
| CC(C)CCO [isoamyl alcohol] | 23 wt. % |
| CC(=O)c1ccccc1 [acetophenone] | 34 wt. % |

Assay: Batch forward extraction of lactic acid into MIBK and back extraction into water (Examples 1-5)
Assay type: physicochemical
Conditions: feed 29 wt % lactic acid, 15.3 wt % magnesium chloride; MIBK; forward 20° C., back 20° C.

| SMILES | concentration of lactic acid in aqueous phase after back extraction |
| --- | --- |
| CC(O)C(=O)O (stereo not shown) [lactic acid] | 34.8 wt % |

Same assay, conditions: feed 29 wt % lactic acid, 15.3 wt % magnesium chloride; MIBK; forward 20° C., back 60° C.

| SMILES | concentration of lactic acid in aqueous phase after back extraction |
| --- | --- |
| CC(O)C(=O)O (stereo not shown) [lactic acid] | 36.2 wt % |

Same assay, conditions: feed 29 wt % lactic acid, 15.3 wt % magnesium chloride; MIBK; forward 60° C., back 20° C.

| SMILES | concentration of lactic acid in aqueous phase after back extraction |
| --- | --- |
| CC(O)C(=O)O (stereo not shown) [lactic acid] | 37.1 wt % |

Same assay, conditions: feed 29 wt % lactic acid, 15.3 wt % magnesium chloride; MIBK; forward 60° C., back 60° C.

| SMILES | concentration of lactic acid in aqueous phase after back extraction |
| --- | --- |
| CC(O)C(=O)O (stereo not shown) [lactic acid] | 36.0 wt % |

Same assay, conditions: feed 29 wt % lactic acid, no dissolved salt; MIBK; forward 20° C., back 20° C.; potentiometric titration

| SMILES | concentration of lactic acid in aqueous phase after back extraction |
| --- | --- |
| CC(O)C(=O)O (stereo not shown) [lactic acid] | 19.4 wt % |

Assay: Comparison of different salts in lactic acid extraction/back extraction with MIBK (Example 11)
Assay type: physicochemical
Conditions: listed as substance is the dissolved salt, at the concentration printed in the row (15-27 wt. %), feed 29 wt % lactic acid, 20° C.

| SMILES | [lactic acid] product |
| --- | --- |
| [Ca+2].[Cl-].[Cl-] [CaCl2] | 18 wt. % |
| [Cl-].[K+] [KCl] | 21 wt. % |
| O=S(=O)([O-])[O-].[Na+].[Na+] [Na2SO4] | 23 wt. % |
| O=[N+]([O-])[O-].[Na+] [NaNO3] | 24 wt. % |
| [Cl-].[Na+] [NaCl] | 23 wt. % |
| O=P([O-])([O-])[O-].[Na+].[Na+].[Na+] [Na3PO4] | 6.4 wt. % |
| N.N.O=S(=O)(O)O [(NH4)2SO4] | 26 wt. % |
| [Cl-].[Cl-].[Mg+2] [MgCl2, magnesium chloride] | 35 wt. % |
